# Library screening results

Data taken from ChEMBL document CHEMBL3988442, “University of Dundee, Small-Polar-MMV Screening Library” (2021).

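Viability assay of Plasmodium falciparum sporozoites; the read-out is not stated. The concentration is filed as 10 mM, unlikely as a test dose, so the dose is not known. Higher reads as lower viability (inferred: compounds with an IC50 in retests scored well above the rest). Strong results were mostly tested again. About 34,000 compounds were tested under these conditions; 0.84% (about 280) showed 50% or more at least once.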

Each number is a percent effect as filed. How 0% and 100% were set is not recorded. Most values in the screen are low, and negative values occur. The compounds are a random part of those screened.

With O=C(O)C(F)(F)F.[H][C@@]12C[C@H](C(=O)NCC(C)C)[C@@]([H])(CN(CCC(C)C)C1)O2 the screen gave 14.9%.
With Cc1n[nH]c(C)c1CC(=O)NCc1ccccc1Cl the screen gave -5.904%.
With COc1ccc(C(=O)N(Cc2cnn(C)c2)C(C)C)cc1OC(F)F the screen gave 7.079%.
With COC(=O)CC1CSCCN1C(=O)CCc1c(C)nn(C)c1C (centres unmarked) the screen gave -0.4325%.
With CC(=O)Nc1ccc(-n2cncn2)c(F)c1 the screen gave 2.873%.
With CN1CCCc2cc(CNC(=O)c3ccc(NC4CC4)nc3)ccc21 the screen gave -13.84%.
With O=C(O)CCc1cc2n(n1)CCCN(C(=O)c1cc3ccccc3s1)C2 the screen gave -9.211%.
With COc1ccccc1OCCN1CCCC(c2noc(C3CC3)n2)C1 (centres unmarked) the screen gave 8.369%.
With CC(C)c1ncc2c(n1)CN(Cc1cccc(C#N)c1)CC2 the screen gave -1.979%.
With NCc1cnn(-c2ccccc2C(=O)NCCc2ccncc2)c1 the screen gave 3.325%.
With O=C(O)C(F)(F)F.[H][C@@]12CN(Cc3cccc(C#N)c3)C[C@]1([H])CN(c1ncccn1)C2 the screen gave 16.99%.
With CN1CC2(CCN(C(=O)c3ccc(-n4cccn4)cc3Cl)C2)OC1=O (centres unmarked) the screen gave -11.01%.
With COC(=O)c1ccc(Cl)c(NS(=O)(=O)c2cn(C)cn2)c1 the screen gave 10.47%.
With Cc1cc(C)c(CNC(=O)NCC(c2ccccc2)N(C)C)c(=O)[nH]1 (centres unmarked) the screen gave 8.883%.
With CN(C)S(=O)(=O)N1CCC(Oc2ccc(C#N)cc2)CC1 the screen gave -6.047%.
With COc1c(CNC2CCSc3ccc(F)cc32)c(C)nn1C.Cl (centres unmarked) the screen gave -2.133%.
With COCCN(Cc1ccc(F)cc1Cl)C(=O)c1cccc[n+]1[O-] the screen gave -8.063%.
With CN(C)C(=O)c1cccc(CCNS(=O)(=O)c2ccccc2)c1 the screen gave -19.74%.
With CCNc1cc2c(nn1)CCN(C(=O)c1ccnc(N(C)C)c1)C2 the screen gave -0.6595%.
With CN(C)CCOCc1cncc2c1CCN(C(=O)C1CCOCC1)C2.O=C(O)C(F)(F)F.O=C(O)C(F)(F)F the screen gave 8.319%.
With Cc1nccn1-c1cccc(N2CCC(OCC3CCCCO3)CC2)n1 (centres unmarked) the screen gave 9.083%.
With [H][C@@]12CN(C(=O)CC3CC3)C[C@]1([H])C(=O)N(CCOC)C2 the screen gave -2.053%.
With CC(C)OCCCN(CC(=O)N1CCNCC1)C(=O)c1ccc(F)cc1.O=C(O)C(F)(F)F the screen gave 10.26%.
With Cc1ccc(N2CCCC(NCC(=O)Nc3cc(C)nn3C)C2)nn1 (centres unmarked) the screen gave -1.524%.
With Cn1ccnc1CN1CCCN(C(=O)c2ccc3cc[nH]c3c2)CC1 the screen gave -1.14%.
With Cc1ccc(=O)n(CC2(O)CCN(Cc3ccsc3)CC2)n1 the screen gave -8.412%.
With COc1c(C)cnc(CN(C)C(=O)c2ccccc2O)c1C the screen gave -3.344%.
With Cc1cc(O)nc(C2CN(CCC(F)(F)F)CCO2)n1 (centres unmarked) the screen gave 13.8%.
With NC(=O)c1cn[nH]c1C1CCCN1C(=O)COc1ccccc1 (centres unmarked) the screen gave -6.65%.
With O=C(c1ncoc1-c1ccco1)N1CCCN(c2ncccn2)CC1 the screen gave -13.46%.
With Cc1ccnc(N2CCCC(c3noc(C(C)C)n3)C2)n1 (centres unmarked) the screen gave -2.977%.
With CCNC(=O)c1cn(C(C)(C)C)c2ncccc12 the screen gave -9.137%.
With c1cnn(Cc2nnc(C3CCN(C4CCOCC4)CC3)n2C2CC2)c1 the screen gave -9.657%.
With COC(=O)c1cccc(C(=O)N2CCN(c3cccc(C)c3C)CC2)n1 the screen gave 0.3352%.

4 of the entries, repeated:

{"compound": "Cc1ccnc(N2CCCC(c3noc(C(C)C)n3)C2)n1", "stereo": "centres unmarked", "effect": -2.977}
{"compound": "Cc1cc(C)c(CNC(=O)NCC(c2ccccc2)N(C)C)c(=O)[nH]1", "stereo": "centres unmarked", "effect": 8.883}
{"compound": "O=C(O)C(F)(F)F.[H][C@@]12CN(Cc3cccc(C#N)c3)C[C@]1([H])CN(c1ncccn1)C2", "effect": 16.99}
{"compound": "Cc1cc(O)nc(C2CN(CCC(F)(F)F)CCO2)n1", "stereo": "centres unmarked", "effect": 13.8}